This experiment deals with DDX6 (Rck/p54) (human (endogenous in MCF-7/A and MCF-7/T)) (UniProt P26196). The experiment is described as follows: co-IP; lysates of drug-resistant cells treated with or without FA; antibody pre-coupled to protein A/G agarose beads, incubated with total protein extract at 4 °C overnight, washed with PBS, western blot. For orientation: A western blot detects proteins with antibodies after separation by electrophoresis.

By UniProt entry, the sequences of proteins in these tests, tags left out.
UniProt P26196: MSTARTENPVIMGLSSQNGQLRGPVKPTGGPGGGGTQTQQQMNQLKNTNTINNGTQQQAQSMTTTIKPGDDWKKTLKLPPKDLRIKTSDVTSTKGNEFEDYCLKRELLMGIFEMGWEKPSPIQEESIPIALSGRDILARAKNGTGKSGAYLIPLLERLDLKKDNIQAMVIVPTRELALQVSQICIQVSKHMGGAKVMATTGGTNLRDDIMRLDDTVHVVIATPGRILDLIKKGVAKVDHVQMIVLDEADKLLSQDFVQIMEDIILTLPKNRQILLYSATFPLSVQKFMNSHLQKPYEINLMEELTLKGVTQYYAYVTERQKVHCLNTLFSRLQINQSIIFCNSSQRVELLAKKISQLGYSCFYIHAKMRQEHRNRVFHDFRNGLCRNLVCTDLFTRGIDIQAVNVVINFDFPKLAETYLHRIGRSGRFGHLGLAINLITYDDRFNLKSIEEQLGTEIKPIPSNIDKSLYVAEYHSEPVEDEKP
UniProt P11142: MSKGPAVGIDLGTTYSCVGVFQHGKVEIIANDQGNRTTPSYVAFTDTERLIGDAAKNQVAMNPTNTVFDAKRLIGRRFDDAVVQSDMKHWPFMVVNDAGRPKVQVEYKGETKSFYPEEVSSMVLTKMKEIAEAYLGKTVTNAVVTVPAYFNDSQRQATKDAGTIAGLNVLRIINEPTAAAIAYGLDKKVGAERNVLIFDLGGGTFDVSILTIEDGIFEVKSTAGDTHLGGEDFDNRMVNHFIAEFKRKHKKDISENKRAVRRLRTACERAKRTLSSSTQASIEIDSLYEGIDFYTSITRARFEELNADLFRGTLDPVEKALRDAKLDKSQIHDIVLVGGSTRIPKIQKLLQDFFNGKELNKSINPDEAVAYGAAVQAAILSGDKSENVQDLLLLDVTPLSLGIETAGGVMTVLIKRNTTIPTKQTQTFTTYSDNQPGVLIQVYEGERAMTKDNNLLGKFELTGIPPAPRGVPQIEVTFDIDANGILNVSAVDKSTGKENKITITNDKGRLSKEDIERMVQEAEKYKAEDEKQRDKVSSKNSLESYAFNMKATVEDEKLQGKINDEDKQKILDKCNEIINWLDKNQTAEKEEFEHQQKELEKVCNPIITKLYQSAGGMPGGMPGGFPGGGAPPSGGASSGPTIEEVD

No constants are given. Whether binding was seen depends on the method and setting. Binding seen in cells or lysates may run through a third protein. Some entries that bind do so weakly or less than the wild type.

As for HSC70 (from UniProt P11142 1-646), the binding entry is “binds”.

The values are drawn from article PMC12981028.
